Experimental data published in PubChem BioAssay AID330 (DTP/NCI, 2004).
The list does not hold the whole screen: its compounds were picked by chemical class. Not every dose and run of a compound is shown. T/C gives the treated animals as a percentage of the vehicle group. Some entries give survivors of the animals treated and no T/C: the source files T/C as zero there, which appears to mark a toxic dose or a test without result, not a measured value. Some doses without a T/C left all or most animals alive at the check, yet need not have been tolerated: the source hardly ever lists a survival T/C far under the control, and the zero likely stands for such cases as well. Survivors were counted at the toxicity check, usually on the fifth day, unless a day is given; later deaths do not show. Schedule codes are those of the source, taken here to give the interval after Q, in days (D) or hours (H), and the number of doses after X. Where survival is the endpoint, this PubChem deposit counts one and a half times the control or more as active, and values a quarter to a half above the control carry no call in these data; other NCI protocols may use other cut-offs. Some entries hold several experiments; the results are listed from low to high. Some T/C values are marked as having no survivor count here; that says nothing about deaths at the dose. Some T/C values carry the count of animals alive at the toxicity check (mostly the fifth day); without a count or a note in brackets, all were alive then.

System: P388 leukemia ip, CD2F1 mice, survival T/C
Assay: NCI In Vivo Anticancer Drug Screen. Data for tumor model P388 Leukemia (intraperitoneal) in CD2F1 (CDF1) mice
Conditions: T/C endpoint: median survival time, higher T/C = longer survival
[1] = dose: 25.0 mg/kg/injection, schedule: Q01DX005 (ip), vehicle: saline with Tween-80
[2] = dose: 50.0 mg/kg/injection, schedule: Q01DX005 (ip), vehicle: saline with Tween-80
[3] = dose: 100.0 mg/kg/injection, schedule: Q01DX005 (ip), vehicle: saline with Tween-80
[4] = dose: 50.0 mg/kg/injection, schedule: Q01DX009 (ip), vehicle: saline with Tween-80
[5] = dose: 100.0 mg/kg/injection, schedule: Q01DX009 (ip), vehicle: saline with Tween-80
[6] = dose: 200.0 mg/kg/injection, schedule: Q01DX009 (ip), vehicle: saline with Tween-80
[7] = dose: 400.0 mg/kg/injection, schedule: Q01DX009 (ip), vehicle: saline with Tween-80
[8] = dose: 25.0 mg/kg/injection, schedule: Q01DX005 (ip), vehicle: saline
[9] = dose: 50.0 mg/kg/injection, schedule: Q01DX009 (ip), vehicle: Klucel (hydroxypropylcellulose) (HPC)
[10] = dose: 100.0 mg/kg/injection, schedule: Q01DX009 (ip), vehicle: Klucel (hydroxypropylcellulose) (HPC)
[11] = dose: 200.0 mg/kg/injection, schedule: Q01DX009 (ip), vehicle: Klucel (hydroxypropylcellulose) (HPC)
[12] = dose: 25.0 mg/kg/injection, schedule: Q01DX005 (ip), vehicle: Klucel (hydroxypropylcellulose) (HPC)
[13] = dose: 50.0 mg/kg/injection, schedule: Q01DX005 (ip), vehicle: Klucel (hydroxypropylcellulose) (HPC)
[14] = dose: 100.0 mg/kg/injection, schedule: Q01DX005 (ip), vehicle: Klucel (hydroxypropylcellulose) (HPC)
[15] = dose: 200.0 mg/kg/injection, schedule: Q01DX005 (ip), vehicle: Klucel (hydroxypropylcellulose) (HPC)
[16] = dose: 6.25 mg/kg/injection, schedule: Q01DX005 (ip), vehicle: saline
[17] = dose: 12.5 mg/kg/injection, schedule: Q01DX005 (ip), vehicle: saline

SMILES: Cc1ccc(N2CC=C(c3ccc(Cl)cc3Cl)OP2(=O)Cl)cc1 (stereo not given)
- T/C [1]: 100 % of control
- T/C [2]: 102 % of control
- T/C [3]: 100 % of control

SMILES: Cc1ccc(Sc2ccc([N+](=O)[O-])cc2[N+](=O)[O-])c([N+](=O)[O-])c1
- T/C (dose: 25.0 mg/kg/injection, schedule: Q01DX009 (ip), vehicle: saline): 104 % of control
- T/C (dose: 50.0 mg/kg/injection, schedule: Q01DX009 (ip), vehicle: saline): 109 % of control
- T/C (dose: 100.0 mg/kg/injection, schedule: Q01DX009 (ip), vehicle: saline): 131 % of control

SMILES: C=CS(=O)(=O)C=C
- T/C (dose: 0.25 mg/kg/injection, schedule: Q01DX009 (ip), vehicle: saline): 95 % of control
- T/C (dose: 0.5 mg/kg/injection, schedule: Q01DX009 (ip), vehicle: saline): 95 % of control [4 of 6 alive]
- survivor count (dose: 1.0 mg/kg/injection, schedule: Q01DX009 (ip), vehicle: saline): 0 of 6

SMILES: CCOP(=O)(NC(=S)NNc1ccccc1)OCC
- T/C (dose: 25.0 mg/kg/injection, schedule: Q01DX009 (ip), vehicle: saline with Tween-80): 107 % of control
- T/C [4]: 99, 104, 113 % of control
- T/C [5]: 100, 107, 110 % of control
- T/C [6]: 100, 107, 120 % of control
- T/C [7]: 111 % of control
- survivor count [7]: 5 of 6

SMILES: CC(C)OP(C)(=O)O.[Gd]
- T/C [4]: 90 % of control [survivor count not shown]
- T/C [5]: 90 % of control [survivor count not shown]

SMILES: CCOCCOCCSP(C)(=O)OC(C)C (stereo not given)
- T/C (dose: 0.75 mg/kg/injection, schedule: Q01DX005 (ip), vehicle: saline): 102 % of control
- T/C (dose: 1.5 mg/kg/injection, schedule: Q01DX005 (ip), vehicle: saline): 100 % of control
- T/C (dose: 3.0 mg/kg/injection, schedule: Q01DX005 (ip), vehicle: saline): 105 % of control

SMILES: COC(=O)C(Cc1ccccc1)NP(C)(=O)OC (stereo not given)
- T/C [8]: 97 % of control
- T/C (dose: 50.0 mg/kg/injection, schedule: Q01DX005 (ip), vehicle: saline): 98 % of control
- T/C (dose: 100.0 mg/kg/injection, schedule: Q01DX005 (ip), vehicle: saline): 97 % of control

SMILES: Cc1ccc2ccccc2n1.O=[N+]([O-])c1cc([N+](=O)[O-])c(O)c([N+](=O)[O-])c1
- T/C (dose: 37.5 mg/kg/injection, schedule: Q01DX009 (ip), vehicle: saline with Tween-80): 96 % of control [survivor count not shown]
- T/C (dose: 75.0 mg/kg/injection, schedule: Q01DX009 (ip), vehicle: saline with Tween-80): 100 % of control [survivor count not shown]
- T/C (dose: 150.0 mg/kg/injection, schedule: Q01DX009 (ip), vehicle: saline with Tween-80): 100 % of control [survivor count not shown]

SMILES: O=P1(c2ccccc2)Nc2ncnc(Cl)c2N1 (stereo not given)
- T/C [9]: 101 % of control
- T/C [10]: 100 % of control
- T/C [11]: 107 % of control

SMILES: CC(C)OP(C)(=O)OC(C)C.[Cl][Ta]([Cl])([Cl])([Cl])[Cl]
- T/C (dose: 100.0 mg/kg/injection, schedule: Q04DX003 (ip), vehicle: Klucel (hydroxypropylcellulose) (HPC)): 108 % of control [survivor count not shown]
- T/C (dose: 200.0 mg/kg/injection, schedule: Q04DX003 (ip), vehicle: Klucel (hydroxypropylcellulose) (HPC)): 108 % of control [survivor count not shown]
- T/C (dose: 400.0 mg/kg/injection, schedule: Q04DX003 (ip), vehicle: Klucel (hydroxypropylcellulose) (HPC)): 97 % of control [survivor count not shown]

SMILES: CCN(CC)CC#CCOC(=O)C(O)(c1ccccc1)c1cccs1 (stereo not given)
- T/C (dose: 60.0 mg/kg/injection, schedule: Q01DX005 (ip), vehicle: Klucel (hydroxypropylcellulose) (HPC)): 98 % of control

SMILES: CC(C)OP(C)(=O)O.[Tb]
- T/C (dose: 100.0 mg/kg/injection, schedule: Q04DX003 (ip), vehicle: saline with Tween-80): 97 % of control [survivor count not shown]
- T/C (dose: 200.0 mg/kg/injection, schedule: Q04DX003 (ip), vehicle: saline with Tween-80): 100 % of control [survivor count not shown]
- T/C (dose: 400.0 mg/kg/injection, schedule: Q04DX003 (ip), vehicle: saline with Tween-80): 100 % of control [survivor count not shown]

SMILES: CN(C)C(=O)Oc1ccc(/C=N/NC(N)=S)nc1
- T/C [4]: 145 % of control
- T/C [5]: 146 % of control
- survivor count [6]: 4 of 6

SMILES: Cc1ccc2cc(N(CCCl)CCCl)ccc2c1
- survivor count [9]: 6 of 6
- survivor count [10]: 6 of 6
- survivor count [11]: 6 of 6

SMILES: C1CN1.O=C(O)CCSCNc1ncnc2c1ncn2C1OC(CO)C(O)C1O (stereo not given)
- T/C (dose: 5.0 mg/kg/injection, schedule: Q04DX002 (ip), vehicle: saline): 113 % of control
- T/C (dose: 10.0 mg/kg/injection, schedule: Q04DX002 (ip), vehicle: saline): 118 % of control
- T/C (dose: 20.0 mg/kg/injection, schedule: Q04DX002 (ip), vehicle: saline): 114 % of control
- survivor count (dose: 100.0 mg/kg/injection, schedule: Q04DX002 (ip), vehicle: saline): 0 of 6
- survivor count (dose: 200.0 mg/kg/injection, schedule: Q04DX002 (ip), vehicle: saline): 0 of 6
- survivor count (dose: 400.0 mg/kg/injection, schedule: Q04DX002 (ip), vehicle: saline): 0 of 6

SMILES: CN(N)P(=O)(Cl)C(Cl)(Cl)Cl (stereo not given)
- T/C (dose: 60.0 mg/kg/injection, schedule: Q01DX005 (ip), vehicle: saline): 98 % of control
- T/C (dose: 120.0 mg/kg/injection, schedule: Q01DX005 (ip), vehicle: saline): 103 % of control
- survivor count (dose: 240.0 mg/kg/injection, schedule: Q01DX005 (ip), vehicle: saline): 0 of 6

SMILES: COc1ccc(C2=CCN(c3ccc(Cl)cc3)P(=O)(Cl)O2)cc1 (stereo not given)
- T/C [12]: 102 % of control
- T/C [13]: 110 % of control
- survivor count [13]: 5 of 5
- T/C [14]: 93 and 117 % of control
- T/C [15]: 107 [4 of 5 alive] and 121 % of control [5 of 6 alive]

SMILES: CCOP(=S)(CC)Oc1cnn(C)c(=O)c1SCC (stereo not given)
- T/C (dose: 1.56 mg/kg/injection, schedule: Q01DX005 (ip), vehicle: saline with Tween-80): 102 % of control
- T/C (dose: 3.13 mg/kg/injection, schedule: Q01DX005 (ip), vehicle: saline with Tween-80): 100 % of control
- T/C (dose: 6.25 mg/kg/injection, schedule: Q01DX005 (ip), vehicle: saline with Tween-80): 99 and 100 % of control
- survivor count (dose: 12.5 mg/kg/injection, schedule: Q01DX005 (ip), vehicle: saline with Tween-80): 2 of 6
- survivor count [1]: 0 of 6

SMILES: BrCc1ccccc1.Brc1cccnc1
- T/C [16]: 101 % of control
- T/C [17]: 96 % of control
- T/C [8]: 99 % of control
- survivor count [2]: 1 of 6
- survivor count [3]: 0 of 6
- survivor count (dose: 200.0 mg/kg/injection, schedule: Q01DX005 (ip), vehicle: saline with Tween-80): 0 of 6

SMILES: O[C@H](CNCCBr)[C@@H](O)CNCCBr
- T/C (dose: 6.6 mg/kg/injection, schedule: Q04DX003 (ip), vehicle: saline): 272 % of control
- survivor count (dose: 10.0 mg/kg/injection, schedule: Q04DX003 (ip), vehicle: saline): 4 of 6
- survivor count (dose: 15.0 mg/kg/injection, schedule: Q04DX003 (ip), vehicle: saline): 0 of 6

SMILES: COC(=O)C1=CSCC(Cl)C1=O (stereo not given)
- T/C (dose: 3.12 mg/kg/injection, schedule: Q01DX005 (ip), vehicle: saline): 99 % of control
- T/C [16]: 115 % of control
- T/C [17]: 118 % of control
- survivor count [13]: 0 of 6
- survivor count [14]: 0 of 6
- survivor count [15]: 0 of 6

SMILES: O=P1(Cl)N(Cc2ccc(Cl)cc2)CCCN1Cc1ccc(Cl)cc1
- T/C [12]: 93 % of control
- T/C [13]: 104 % of control
- T/C [14]: 112 % of control
- T/C [15]: 109 % of control
